From publication PMC9601121
Positions count from the first letter of the chain named. No constants are given. Whether binding was seen depends on the method and setting. Binding seen in cells or lysates may run through a third protein. Some binding calls cover weakened binding; strength is not graded here. Where a sequence is shown, tags or fusion partners need not be part of it.

Sequences of proteins named here, by UniProt entry; tags and fusion partners are left off.
UniProt Q01628: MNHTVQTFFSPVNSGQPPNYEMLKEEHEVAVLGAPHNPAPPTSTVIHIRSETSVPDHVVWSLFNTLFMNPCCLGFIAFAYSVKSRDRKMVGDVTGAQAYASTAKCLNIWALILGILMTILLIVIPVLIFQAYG

Tests used:
[1] = target: T1, 2XFlag-ZMPSTE24 (wild type) (human) (UniProt O75844); experiment: co-IP; HEK293T cotransfected with Myc-IFITM3 and Flag-ZMPSTE24, Flag-ZMPSTE24-E336A or vector; lysis in 50 mM HEPES pH 7.5, 150 mM NaCl, 1% Triton X-100; 100,000 x g supernatant; anti-FLAG M2 magnetic beads 2 h at 4°C; blots with anti-FLAG and anti-Myc
T1 sequence: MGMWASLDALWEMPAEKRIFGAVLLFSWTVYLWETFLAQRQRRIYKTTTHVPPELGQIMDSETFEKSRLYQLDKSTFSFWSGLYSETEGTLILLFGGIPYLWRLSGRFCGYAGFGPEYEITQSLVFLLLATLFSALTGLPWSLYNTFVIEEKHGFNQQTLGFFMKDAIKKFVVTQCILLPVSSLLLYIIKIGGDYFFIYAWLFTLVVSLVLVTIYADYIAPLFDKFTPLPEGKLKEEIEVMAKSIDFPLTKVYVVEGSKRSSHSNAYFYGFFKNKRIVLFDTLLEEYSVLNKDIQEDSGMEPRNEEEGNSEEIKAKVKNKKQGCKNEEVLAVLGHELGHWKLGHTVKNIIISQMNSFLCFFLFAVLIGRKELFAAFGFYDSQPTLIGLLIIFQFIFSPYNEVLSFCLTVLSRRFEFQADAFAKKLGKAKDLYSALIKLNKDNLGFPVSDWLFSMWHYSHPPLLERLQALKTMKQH

[2] = target: T2, 2XFlag-ZMPSTE24-E336A (catalytically dead) (human) (UniProt O75844); experiment: as above
T2 sequence: T1 sequence with E336A

Which binding [1] does the source give for Myc-hIFITM3 (from UniProt Q01628 1-133) here?
Its binding is “binds”.

What about the binding [2] of the same substance?
Its binding is “binds”.
